Results: PubChem BioAssay AID1487 (National Center for Advancing Translational Sciences (NCATS), 2009)
“And” between values parts separate entries of the source, which are not always exact repeats. Identical values can stand only once. The list shows a part of the results. Further columns of the screen follow, without active or inactive calls. The list favours compounds with an active or inconclusive main result. Words in brackets tell the shape of the fitted curve; partial curves, single points and poor fits give uncertain potencies.

Experiment: qHTS Assay for Modulators of Lamin A Splicing
Conditions: HeLa LMNA splicing GFP/RFP minigene ratio, 48 h
Procedure, shortened: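 Read-out is the ratio of GFP to DsRed2 object intensity, acquired by 488 nm laser-scanning cytometry on HeLa lamin A-EGFP minigene reporter cells. Compound incubation 48 hrs at 37 °C in Opti-MEM with 2% FBS; DMSO 0.5% final.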

[1] = measured here: GFP splicing reporter channel
[2] = measured here: RFP viability control channel

Question: Which AC50 [1] does the source give for `Cc1ccc(-c2cn(S(=O)(=O)c3cccc4nsnc34)nc2N)cc1` here?
Answer: Its AC50 is 3.98 µM [rising, full curve, poor fit].

Question: What about the AC50 [2] of the same compound?
Answer: Its AC50 is 12.6 µM [rising, partial curve, poor fit].

Question: With `CC1CN(CC(=O)Nc2cc(S(=O)(=O)N3CCCC3)ccc2Cl)CC(C)O1` (configuration not stated) as the compound, how does the AC50 [1] read?
Answer: Its AC50 is 0.355 µM [falling, full curve].

Question: For `COc1ccc(C)cc1Cn1c(S(C)(=O)=O)nc2ccccc21`, which AC50 [2] is on record?
Answer: Its AC50 is 20 µM [rising, partial curve, poor fit].

Question: Which AC50 [1] does the source give for `COc1ccc(Nc2nc3ccccc3nc2C)cc1` here?
Answer: The AC50 was 7.08 µM [rising, partial curve, poor fit].

Question: For `Cc1ccc2c(c1)C(SCC(=O)NCCc1ccccc1)CC1(CCCC1)O2` (configuration not stated), which AC50 [2] is on record?
Answer: The AC50 was 22.4 µM [rising, single point].

Question: For `Cn1cc(Br)c(C(=O)n2cc(Br)cn2)n1`, which AC50 [1] is on record?
Answer: Its AC50 is 5.62 µM [falling, full curve, poor fit].

Question: Which AC50 [1] does the source give for `Cn1c(=O)n(C)c2cc(NS(=O)(=O)c3ccccc3)c(NCc3ccccc3)cc21` here?
Answer: The AC50 was 39.8 µM [falling, partial curve, poor fit].

Question: Which AC50 [2] does the source give for `Cc1cc(=O)n2[nH]c(N)c(N=Nc3ccccc3)c2n1` here?
Answer: The AC50 was 17.8 µM [rising, single point].

Question: For `Cc1cccc(-n2c(C)nc3cc(C(=O)NCc4ccc5c(c4)OCO5)ccc32)c1`, which AC50 [2] is on record?
Answer: Its AC50 is 0.1 µM [rising, full curve, poor fit].

Question: For `C[C@]12CCC(=O)C=C1CC[C@@H]1[C@@H]2[C@@H](O)C[C@@]2(C)[C@H]1CC[C@]2(O)C(=O)COC(=O)CCC(=O)O`, which AC50 [1] is on record?
Answer: Its AC50 is 5.62 µM [rising, single point].

Question: Which AC50 [2] does the source give for `Cc1ccc(Cl)cc1N1CCN(C(=O)CSc2nnc3n2C(C)(C)Cc2ccccc2-3)CC1` here?
Answer: The AC50 was 15.8 µM [rising, partial curve].

Question: Which AC50 [2] does the source give for `CCOC(=O)c1cnc2sc3c(n2c1=O)CCCC3` here?
Answer: The AC50 was 12.6 µM [rising, partial curve, poor fit].

Question: Which AC50 [2] does the source give for `CCNc1nc(SCCOc2ccccc2)nc(N(C)C)n1` here?
Answer: The AC50 was 22.4 µM [rising, single point].

Question: With `Cc1onc(-c2ccccc2)c1C(=O)N/N=C/c1cc2c(cc1Br)OCO2` as the compound, how does the AC50 [1] read?
Answer: Its AC50 is 7.94 µM [rising, partial curve, poor fit].

Question: What about the AC50 [2] of the same compound?
Answer: The AC50 was 22.4 µM [rising, partial curve].

Question: With `CSc1nsc(NC(=O)Cc2ccccc2)n1` as the compound, how does the AC50 [2] read?
Answer: Its AC50 is 12.6 µM [rising, single point].

Question: With `Cc1nn(-c2nc3ccccc3n2Cc2ccccc2)c2c1C(=O)CC(C)(C)C2` as the compound, how does the AC50 [1] read?
Answer: Its AC50 is 12.6 µM [rising, partial curve, poor fit].

Question: And the AC50 [2]?
Answer: The AC50 was 14.1 µM [rising, partial curve, poor fit].

Question: Which AC50 [2] does the source give for `COC(=O)Cc1ccc(N(Cc2ccccc2F)S(=O)(=O)c2ccc(Br)cc2)cc1` here?
Answer: Its AC50 is 10 µM [falling, partial curve].

Question: Which AC50 [2] does the source give for `COc1cc(NC(=O)CN(C)Cc2ccc(OC(F)F)cc2)c(C)cc1[N+](=O)[O-]` here?
Answer: Its AC50 is 0.2 µM [rising, partial curve, poor fit].

Question: For `CC(C)(C)NC[C@H](O)COc1nsnc1N1CCOCC1`, which AC50 [1] is on record?
Answer: Its AC50 is 0.891 nM [falling, full curve, poor fit] and 6.31 nM [falling, full curve, poor fit].

Question: What about the AC50 [2] of the same compound?
Answer: The AC50 was 0.000794 µM [falling, full curve, poor fit].

Question: For `O=C(NC(=S)Nc1ccc(CN2CCCCC2)cc1)c1cccc(OCc2ccccc2)c1`, which AC50 [2] is on record?
Answer: Its AC50 is 17.8 µM [falling, single point].

Question: With `CCCc1cnc2c(c1SCc1cccc(C)c1)c(=O)n(C)c(=O)n2C` as the compound, how does the AC50 [2] read?
Answer: Its AC50 is 35.5 µM [rising, single point].

Question: With `Cc1ccc(/C(=N\O)c2oc3c(C)c4oc(=O)cc(C)c4cc3c2C)cc1` as the compound, how does the AC50 [1] read?
Answer: Its AC50 is 17.8 µM [rising, single point].

Question: And the AC50 [2]?
Answer: Its AC50 is 14.1 µM [rising, partial curve].

Question: Which AC50 [2] does the source give for `CCN(CC)S(=O)(=O)c1ccc2nc(NC(=O)c3cccs3)sc2c1` here?
Answer: Its AC50 is 20 µM [rising, single point].

Question: With `Cc1ccc2[nH]c3c(N4CCOCC4)ncnc3c2c1` as the compound, how does the AC50 [2] read?
Answer: Its AC50 is 31.6 µM [rising, single point].

Question: Which AC50 [2] does the source give for `CCC(=O)Nc1cccc(NC(=S)NC(=O)Cc2ccccc2)c1` here?
Answer: Its AC50 is 11.2 µM [rising, single point].

Question: For `C=CS(=O)c1sc(Cl)c(N2CCOCC2)c1[N+](=O)[O-]` (configuration not stated), which AC50 [2] is on record?
Answer: The AC50 was 3.16 µM [falling, single point].

Question: With `COc1ccc2nc(NC(=O)CSc3nc(C)cc(C)n3)sc2c1` as the compound, how does the AC50 [2] read?
Answer: Its AC50 is 15.8 µM [rising, single point].

Question: Which AC50 [2] does the source give for `CC(=O)c1ccc(NC(=O)c2sc(-n3nc(C)c(CCC(C)C)c3C)nc2C)cc1` here?
Answer: The AC50 was 35.5 µM [falling, single point].

Question: For `CCn1nc(C)c(NC(=O)CCCSc2nc(-c3ccco3)cc(C(F)(F)F)n2)c1C`, which AC50 [2] is on record?
Answer: Its AC50 is 14.1 µM [rising, partial curve].

Question: With `Cn1c(=O)c2c(nc(N3CCCCC3)n2CCNC2=NCCC2)n(C)c1=O` as the compound, how does the AC50 [1] read?
Answer: Its AC50 is 35.5 µM [falling, single point].

Question: What about the AC50 [2] of the same compound?
Answer: The AC50 was 35.5 µM [falling, single point].

Question: Which AC50 [2] does the source give for `CCOc1ccccc1NC(=O)CSc1nc2ccccc2nc1Cc1ccc(C)cc1` here?
Answer: Its AC50 is 0.562 µM [rising, partial curve, poor fit].

Question: With `O=C1[C@@H]2C(Cc3ccc(O)cc3)NC3(C(=O)Nc4ccc(F)cc43)[C@@H]2C(=O)N1c1ccccc1` (some centres not stated) as the compound, how does the AC50 [2] read?
Answer: Its AC50 is 12.6 µM [rising, single point].

Question: For `Cc1ccc(SCc2c(C#N)c3ccccc3n2C)cc1`, which AC50 [2] is on record?
Answer: The AC50 was 15.8 µM [rising, partial curve].

Question: Which results are given for `COCCn1c(SC(C(=O)Nc2cc(C)ccc2OC)c2ccccc2)nnc1-c1ccc(Cl)cc1` (configuration not stated)?
Answer: AC50 [1]: 11.2 µM [rising, partial curve]; AC50 [2]: 14.1 µM [rising, single point]

Question: What does the source list for `COc1cc(OC)c(NC(=O)Cc2c(C(=O)O)c(C)cn2C)cc1Cl`?
Answer: AC50 [1]: 0.0251 µM [rising, full curve, poor fit]; AC50 [2]: 0.01 µM [rising, full curve, poor fit]

Question: Which AC50 [1] does the source give for `CN(C)/C=C/C(=O)c1ccc(Oc2ncccn2)cc1` here?
Answer: The AC50 was 0.794 µM [falling, single point].

Question: And the AC50 [2]?
Answer: The AC50 was 35.5 µM [falling, single point].

Question: With `COc1ccc(C(=O)c2sc(NC(C)C)nc2N)cc1OC` as the compound, how does the AC50 [1] read?
Answer: Its AC50 is 15.8 µM [falling, partial curve].

Question: What about the AC50 [2] of the same compound?
Answer: Its AC50 is 22.4 µM [falling, single point].

Question: For `CC(C)Cn1c(-c2ccncc2)n[nH]c1=S`, which AC50 [2] is on record?
Answer: The AC50 was 0.708 µM [falling, full curve, poor fit].

Question: With `O=C(NCc1ccncc1)c1nc(-c2cccs2)no1` as the compound, how does the AC50 [1] read?
Answer: The AC50 was 3.98 µM [rising, partial curve, poor fit].

Question: Which results are given for `CCNc1nc(NCC)nc(Oc2ccc(OCc3ccccc3)nn2)n1`?
Answer: AC50 [1]: 17.8 µM [falling, single point]; AC50 [2]: 8.91 µM [falling, partial curve]

Question: Which AC50 [1] does the source give for `CC(C)NC1=C(Cl)C(=O)c2ccccc2C1=O` here?
Answer: Its AC50 is 35.5 µM [falling, single point].

Question: What about the AC50 [2] of the same compound?
Answer: Its AC50 is 6.31 µM [falling, partial curve].

Question: With `O=C(/C=C/c1ccc(F)cc1)NCc1ccco1` as the compound, how does the AC50 [2] read?
Answer: The AC50 was 8.91 µM [falling, partial curve, poor fit].

Question: Which AC50 [2] does the source give for `CCn1c(O)c(N=NC(=O)c2cccc(S(=O)(=O)N3CCCCC3)c2)c2ccccc21` here?
Answer: The AC50 was 12.6 µM [rising, single point].

Question: With `CCOC(=O)CC(=O)CSc1nc2c(cc1C#N)CCC2` as the compound, how does the AC50 [2] read?
Answer: Its AC50 is 14.1 µM [falling, single point].

Question: With `Cc1nc2ccn(Cc3cccnc3)c(=O)c2cc1C(=O)NCc1ccccc1` as the compound, how does the AC50 [2] read?
Answer: The AC50 was 10 µM [rising, single point].

Question: With `O=C(CSc1ncccn1)Nc1ncc(C(F)(F)F)cc1Cl` as the compound, how does the AC50 [2] read?
Answer: Its AC50 is 35.5 µM [falling, single point].

Question: For `Clc1ccc(N2COC3c4cccc5cccc(c45)C32)cc1` (configuration not stated), which AC50 [2] is on record?
Answer: The AC50 was 20 µM [rising, single point].

Question: Which AC50 [1] does the source give for `COc1cc(OC)c(C(=O)NCCCN2CCOCC2)cc1OC` here?
Answer: Its AC50 is 11.2 µM [falling, partial curve, poor fit].

Question: Which AC50 [1] does the source give for `CCCNC(=O)C/C(C)=N/NC(=O)C(=O)Nc1ccccn1` here?
Answer: The AC50 was 0.0282 µM [falling, full curve, poor fit].

Question: For `O=C(/C=C/c1ccco1)Nc1ccc(Oc2ccccc2)cc1`, which AC50 [1] is on record?
Answer: Its AC50 is 11.2 µM [falling, partial curve, poor fit].

Question: What about the AC50 [2] of the same compound?
Answer: The AC50 was 10 µM [falling, partial curve].

Question: For `Nc1ncnc2nc(SCCOc3ccc(Cl)cc3)[nH]c12`, which AC50 [1] is on record?
Answer: The AC50 was 20 µM [rising, single point].

Question: Which AC50 [2] does the source give for `CC1(C)CC(C)(c2ccc(O)cc2O)N(c2ccc3ccccc3c2)C(=S)N1` (configuration not stated) here?
Answer: Its AC50 is 1.12 µM [rising, partial curve, poor fit].

Question: Which AC50 [1] does the source give for `Cc1oc(-c2ccccc2Cl)nc1CS(=O)CC(=O)N1CCN(c2cccc(C(F)(F)F)c2)CC1` (configuration not stated) here?
Answer: The AC50 was 17.8 µM [falling, partial curve].

Question: And the AC50 [2]?
Answer: Its AC50 is 20 µM [falling, partial curve].

Question: For `Cc1noc(C)c1COc1ccc(C(=O)OCC(=O)Nc2c(C)n(C)n(-c3ccccc3)c2=O)cc1`, which AC50 [1] is on record?
Answer: The AC50 was 35.5 µM [falling, single point].

Question: For `O=C(CNS(=O)(=O)c1ccc(F)cc1)N1CCN(c2ccc(F)cc2)CC1`, which AC50 [2] is on record?
Answer: Its AC50 is 28.2 µM [rising, single point].

Question: With `CC(C)CCNC(=O)C(c1ccncc1)N(Cc1cccs1)C(=O)Cn1nnc(-c2ccc(F)cc2)n1` (configuration not stated) as the compound, how does the AC50 [1] read?
Answer: The AC50 was 5.01 µM [falling, full curve].

Question: What about the AC50 [2] of the same compound?
Answer: The AC50 was 12.6 µM [rising, partial curve].

Question: For `O=C(Nc1cccc(F)c1)c1cc(S(=O)(=O)NCCC2=CCCCC2)ccc1F`, which AC50 [2] is on record?
Answer: Its AC50 is 22.4 µM [rising, partial curve, poor fit].
